The text below walks through data of paper doi:10.1101/679936.

For assay [1], the target named is T1, FLAG-SCAP C-term (hamster) (UniProt P97260).
T1 sequence: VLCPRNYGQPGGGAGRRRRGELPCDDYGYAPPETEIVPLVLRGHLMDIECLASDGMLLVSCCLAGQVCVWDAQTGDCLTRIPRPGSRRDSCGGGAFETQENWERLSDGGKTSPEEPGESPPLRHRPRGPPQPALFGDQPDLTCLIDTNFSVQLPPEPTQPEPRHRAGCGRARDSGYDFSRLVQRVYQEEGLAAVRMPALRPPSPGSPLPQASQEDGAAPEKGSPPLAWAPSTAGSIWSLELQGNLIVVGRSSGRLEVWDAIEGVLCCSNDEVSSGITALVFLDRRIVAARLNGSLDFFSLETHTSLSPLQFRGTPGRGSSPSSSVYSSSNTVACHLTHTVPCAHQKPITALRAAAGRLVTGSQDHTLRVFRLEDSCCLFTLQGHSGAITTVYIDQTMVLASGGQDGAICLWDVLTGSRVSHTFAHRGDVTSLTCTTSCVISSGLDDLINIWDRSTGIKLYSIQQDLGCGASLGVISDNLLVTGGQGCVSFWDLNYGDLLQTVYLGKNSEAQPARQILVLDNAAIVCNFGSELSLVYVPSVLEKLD
Description: co-IP.

Another assay has as its target T2, FLAG-SREBP2 (UniProt Q12772).
T2 sequence: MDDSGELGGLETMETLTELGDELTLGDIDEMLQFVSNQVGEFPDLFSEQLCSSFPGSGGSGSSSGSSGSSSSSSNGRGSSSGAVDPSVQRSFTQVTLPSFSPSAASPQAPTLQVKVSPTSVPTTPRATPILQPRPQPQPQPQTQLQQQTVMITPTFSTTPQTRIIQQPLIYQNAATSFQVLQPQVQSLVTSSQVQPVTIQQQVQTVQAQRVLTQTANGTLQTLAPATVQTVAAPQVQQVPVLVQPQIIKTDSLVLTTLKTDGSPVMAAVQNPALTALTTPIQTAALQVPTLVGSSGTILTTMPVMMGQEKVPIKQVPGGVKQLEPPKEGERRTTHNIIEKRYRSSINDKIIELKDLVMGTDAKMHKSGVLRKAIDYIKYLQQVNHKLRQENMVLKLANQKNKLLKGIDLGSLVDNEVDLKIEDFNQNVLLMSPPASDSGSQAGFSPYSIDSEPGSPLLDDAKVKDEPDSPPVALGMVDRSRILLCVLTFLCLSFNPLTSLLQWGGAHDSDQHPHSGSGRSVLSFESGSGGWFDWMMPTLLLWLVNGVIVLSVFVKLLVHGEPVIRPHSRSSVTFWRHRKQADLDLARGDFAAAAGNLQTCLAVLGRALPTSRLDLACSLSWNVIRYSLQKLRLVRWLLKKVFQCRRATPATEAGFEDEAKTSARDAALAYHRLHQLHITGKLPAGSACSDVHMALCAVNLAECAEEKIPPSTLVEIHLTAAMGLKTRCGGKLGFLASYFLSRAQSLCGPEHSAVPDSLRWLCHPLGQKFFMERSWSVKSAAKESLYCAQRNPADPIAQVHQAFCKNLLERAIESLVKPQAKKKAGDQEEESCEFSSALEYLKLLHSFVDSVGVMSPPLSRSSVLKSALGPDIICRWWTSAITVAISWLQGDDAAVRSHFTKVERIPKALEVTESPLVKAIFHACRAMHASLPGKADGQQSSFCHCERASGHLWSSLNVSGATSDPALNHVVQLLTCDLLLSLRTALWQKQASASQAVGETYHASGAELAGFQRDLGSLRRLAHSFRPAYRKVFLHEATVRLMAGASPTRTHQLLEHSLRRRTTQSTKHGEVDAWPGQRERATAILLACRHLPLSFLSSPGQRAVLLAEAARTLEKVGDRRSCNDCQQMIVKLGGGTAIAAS
As to the kind of experiment: co-IP.

These are yes or no findings as the source states them, for the method shown. In cells and extracts the contact can be indirect. Some entries that bind do so weakly or less than the wild type. Tags and fused reporters may be left off the sequences shown.

B1: Sac1, endogenous in HEK 293T (protein, UniProt Q9NTJ5 1-587)
chain: MATAAYEQLKLHITPEKFYVEACDDGADDVLTIDRVSTEVTLAVKKDVPPSAVTRPIFGILGTIHLVAGNYLIVITKKIKVGEFFSHVVWKATDFDVLSYKKTMLHLTDIQLQDNKTFLAMLNHVLNVDGFYFSTTYDLTHTLQRLSNTSPEFQEMSLLERADQRFVWNGHLLRELSAQPEVHRFALPVLHGFITMHSCSINGKYFDWILISRRSCFRAGVRYYVRGIDSEGHAANFVETEQIVHYNGSKASFVQTRGSIPVFWSQRPNLKYKPLPQISKVANHMDGFQRHFDSQVIIYGKQVIINLINQKGSEKPLEQTFATMVSSLGSGMMRYIAFDFHKECKNMRWDRLSILLDQVAEMQDELSYFLVDSAGQVVANQEGVFRSNCMDCLDRTNVIQSLLARRSLQAQLQRLGVLHVGQKLEEQDEFEKIYKNAWADNANACAKQYAGTGALKTDFTRTGKRTHLGLIMDGWNSMIRYYKNNFSDGFRQDSIDLFLGNYSVDELESHSPLSVPRDWKFLALPIIMVVAFSMCIICLLMAGDTWTETLAYVLFWGVASIGTFFIILYNGKDFVDAPRLVQKEKID
In the case of B1, the binding result is “binds weakly” in assay [1] and “binds” with FLAG-SREBP2.
